Laboratory results: the supplement of paper PMC10735217
This is one part of the list. Single values are uncertain here, since repeats match poorly.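 The human kidney-derived cells carry a stably integrated construct of eight TEAD-binding elements driving luciferase, read by luminescence in a drug-repurposing library screen. A compound counts as a hit when its signal is more than five robust Z scores above the plate mean.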

Tested on: HEK293A TEAD-LUC reporter
Assay: TEAD-luciferase reporter activity (YAP activation), robust Z score vs plate; higher = stronger YAP/TEAD activation
Conditions: 24 h

SMILES	TEAD-luciferase reporter activity (compound concentration: 200 nM)	TEAD-luciferase reporter activity (compound concentration: 2 uM)	TEAD-luciferase reporter activity (compound concentration: 10 uM)
CCC(COCc1cc(OC)c(OC)c(OC)c1)(c1ccccc1)N(C)C (centres undefined)	inactive: -1.36	inactive: -0.837	inactive: 0.747
C=CCN(C1=NCCN1)c1c(Cl)cccc1Cl [Alinidine]	inactive: -1.89	inactive: -1.37	inactive: -0.569
CCCN1CC[C@H]2c3cc(O)ccc3CC[C@H]21	inactive: -0.204	inactive: -0.847	inactive: 1.74
Cc1ccc(F)cc1NC1=NCCN1 [flutonidine]	inactive: 3.17	inactive: 1.33	inactive: -1.47
CCc1c(C)cc(C(=O)NC2(C(=O)O)CCCCC2)c(=O)n1Cc1ccc(F)cc1	inactive: -0.962	inactive: -0.34	inactive: -1.35
COC(=O)C1=CCCN(C)C1 [arecoline, transdermal]		inactive: -0.872	
COC(=O)C1=CCCN(C)C1	inactive: -1.02		inactive: -0.0772
Cc1ncc([N+](=O)[O-])n1CCOC(N)=O	inactive: -1.37	inactive: 0.834	inactive: 0.145
CN1C(=O)CN(C(N)=O)C(c2ccccc2)c2cc(Cl)ccc21 (centres undefined)	inactive: -0.141	inactive: -0.876	inactive: -0.153
CC(C)C(NC(=O)c1ccc(C(=O)NCC(=O)O)cc1)C(=O)N1CCC[C@H]1C(=O)NC(C(=O)C(F)(F)F)C(C)C (some centres undefined)	inactive: 0.195	inactive: -0.623	inactive: 0.561
CCNC1(c2cccs2)CCCCC1=O (centres undefined)	inactive: 1.12	inactive: -1.43	inactive: 0.684
COc1cc2c(c(OC)c1OC)-c1ccc(OC)c(=O)cc1[C@@H](NC(C)=O)CC2 [colchicine]		active: 12	
COc1cc2c(c(OC)c1OC)-c1ccc(OC)c(=O)cc1[C@@H](NC(C)=O)CC2	inactive: 2.44		active: 11.3
COCN1C(=O)N(COC)C(=O)C(c2ccccc2)(c2ccccc2)C1=O	inactive: -0.68	inactive: 0.535	inactive: -0.0309
O=C(N[C@H]1C2CCN(CC2)[C@@H]1Cc1cccnc1)c1cc2ccccc2o1 [Bradanicline]	inactive: 0.11	inactive: 1.92	inactive: 0.831

Single records (already shown):
COCN1C(=O)N(COC)C(=O)C(c2ccccc2)(c2ccccc2)C1=O reads TEAD-luciferase reporter activity (compound concentration: 200 nM): inactive: -0.68; TEAD-luciferase reporter activity (compound concentration: 2 uM): inactive: 0.535; TEAD-luciferase reporter activity (compound concentration: 10 uM): inactive: -0.0309
Cc1ccc(F)cc1NC1=NCCN1 [flutonidine] reads TEAD-luciferase reporter activity (compound concentration: 200 nM): inactive: 3.17; TEAD-luciferase reporter activity (compound concentration: 2 uM): inactive: 1.33; TEAD-luciferase reporter activity (compound concentration: 10 uM): inactive: -1.47
